This assay addresses T1, LSD-LIKE 1 (LDL1), FLAG tagged, expressed under its own promoter (Arabidopsis thaliana) (UniProt Q8VXV7).
T1 sequence: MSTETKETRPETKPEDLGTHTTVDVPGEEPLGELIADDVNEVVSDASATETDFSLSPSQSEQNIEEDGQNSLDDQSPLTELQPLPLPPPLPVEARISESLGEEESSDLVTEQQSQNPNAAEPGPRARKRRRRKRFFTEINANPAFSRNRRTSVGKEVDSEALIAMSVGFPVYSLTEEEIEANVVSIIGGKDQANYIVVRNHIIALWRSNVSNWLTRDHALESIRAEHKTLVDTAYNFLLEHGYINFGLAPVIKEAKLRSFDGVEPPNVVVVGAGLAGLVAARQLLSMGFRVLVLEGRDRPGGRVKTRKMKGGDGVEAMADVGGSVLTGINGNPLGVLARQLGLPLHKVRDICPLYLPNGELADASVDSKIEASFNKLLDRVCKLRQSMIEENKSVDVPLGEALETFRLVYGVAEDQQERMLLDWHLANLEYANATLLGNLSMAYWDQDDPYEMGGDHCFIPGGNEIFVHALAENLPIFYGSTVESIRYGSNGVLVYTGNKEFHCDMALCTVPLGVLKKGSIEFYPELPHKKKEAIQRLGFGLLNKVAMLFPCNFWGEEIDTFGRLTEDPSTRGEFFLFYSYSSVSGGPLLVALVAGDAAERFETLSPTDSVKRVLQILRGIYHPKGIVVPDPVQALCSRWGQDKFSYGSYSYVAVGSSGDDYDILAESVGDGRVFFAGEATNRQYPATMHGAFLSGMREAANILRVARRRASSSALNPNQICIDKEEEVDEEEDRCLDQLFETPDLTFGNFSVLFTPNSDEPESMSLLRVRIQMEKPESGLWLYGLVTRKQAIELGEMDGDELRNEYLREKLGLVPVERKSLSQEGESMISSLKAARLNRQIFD
Nature of the assay: affinity purification with mass spectrometry; FLAG affinity purification of LDL1-3xFLAG from ~15 g inflorescence tissue of transgenic plants, Col-0 as control; lysis buffer 50 mM Tris pH 7.5, 300 mM NaCl, 5 mM MgCl2, 5% glycerol, 0.02% NP-40, 0.5 mM DTT; two replicate purifications.

This is an account of results in article PMC3469426.

No constants are given. Whether binding was seen depends on the method and setting. In cells and extracts the contact can be indirect. A yes stands for co-enrichment or nearness to the bait. Other partners may have been found. Where a sequence is shown, tags or fusion partners need not be part of it.

B1: SU(VAR)3-9 RELATED 5 (SUVR5) (protein, UniProt O64827 1-1382)
chain: MEVKMDELVLDVDVEEATGSELLVKSEPEADLNAVKSSTDLVTVTGPIGKNGEGESSPSEPKWLQQDEPIALWVKWRGKWQAGIRCAKADWPLTTLRGKPTHDRKKYCVIFFPHTKNYSWADMQLVRSINEFPDPIAYKSHKIGLKLVKDLTAARRYIMRKLTVGMFNIVDQFPSEVVSEAARDIIIWKEFAMEATRSTSYHDLGIMLVKLHSMILQRYMDPIWLENSFPLWVQKCNNAVNAESIELLNEEFDNCIKWNEVKSLSESPMQPMLLSEWKTWKHDIAKWFSISRRGVGEIAQPDSKSVFNSDVQASRKRPKLEIRRAETTNATHMESDTSPQGLSAIDSEFFSSRGNTNSPETMKEENPVMNTPENGLDLWDGIVVEAGGSQFMKTKETNGLSHPQDQHINESVLKKPFGSGNKSQQCIAFIESKGRQCVRWANEGDVYCCVHLASRFTTKSMKNEGSPAVEAPMCGGVTVLGTKCKHRSLPGFLYCKKHRPHTGMVKPDDSSSFLVKRKVSEIMSTLETNQCQDLVPFGEPEGPSFEKQEPHGATSFTEMFEHCSQEDNLCIGSCSENSYISCSEFSTKHSLYCEQHLPNWLKRARNGKSRIISKEVFVDLLRGCLSREEKLALHQACDIFYKLFKSVLSLRNSVPMEVQIDWAKTEASRNADAGVGEFLMKLVSNERERLTRIWGFATGADEEDVSLSEYPNRLLAITNTCDDDDDKEKWSFSGFACAICLDSFVRRKLLEIHVEERHHVQFAEKCMLLQCIPCGSHFGDKEQLLVHVQAVHPSECKSLTVASECNLTNGEFSQKPEAGSSQIVVSQNNENTSGVHKFVCKFCGLKFNLLPDLGRHHQAEHMGPSLVGSRGPKKGIRFNTYRMKSGRLSRPNKFKKSLGAVSYRIRNRAGVNMKRRMQGSKSLGTEGNTEAGVSPPLDDSRNFDGVTDAHCSVVSDILLSKVQKAKHRPNNLDILSAARSACCRVSVETSLEAKFGDLPDRIYLKAAKLCGEQGVQVQWHQEGYICSNGCKPVKDPNLLHPLIPRQENDRFGIAVDAGQHSNIELEVDECHCIMEAHHFSKRPFGNTAVLCKDISFGKESVPICVVDDDLWNSEKPYEMPWECFTYVTNSILHPSMDLVKENLQLRCSCRSSVCSPVTCDHVYLFGNDFEDARDIYGKSMRCRFPYDGKQRIILEEGYPVYECNKFCGCSRTCQNRVLQNGIRAKLEVFRTESKGWGLRACEHILRGTFVCEYIGEVLDQQEANKRRNQYGNGDCSYILDIDANINDIGRLMEEELDYAIDATTHGNISRFINHSCSPNLVNHQVIVESMESPLAHIGLYASMDIAAGEEITRDYGRRPVPSEQENEHPCHCKATNCRGLLS
For B1, the binding result is listed as “binds”.
